PubChem BioAssay AID1259254, NCATS, 2017

Assay: 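Finding genes that stop cells copying their DNA twice in one cycle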 (primary screen)
Cells: human HCT116 colorectal cancer cells
Reagent: single siRNA against human genes
Timing: 3 days
Measured: 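Nuclei stained with Hoechst and imaged; cell-cycle phase assigned by DNA content; G2 share scaled per plate, non-targeting siRNA 0%, GMNN siRNA 100%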
Reading the numbers: G2 robust z-score and G2 cells, % of GMNN control: higher = more G2 cells, more excess DNA replication
Active means: 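Active siRNAs have a G2 robust z of 5 or more median absolute deviations over the median, which in these data means about 38% or higher of GMNN control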
The deposit covers about 59,000 reagents; below is a part drawn at random. About 1,550 of all reagents (2.6%) were called active. 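G2 share is only a proxy for re-replication; each gene was hit by three separate siRNAs, and active genes were retested.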 Entries without a mark were called inactive. The numbers tell different reagents against one gene apart. Further read-outs or replicates are left out here. The record does not give: the amount of reagent.

IGFL3 #1 → G2 robust z-score = 0.00815; G2 cells, % of GMNN control = 3.02
IGFL3 #2 → G2 robust z-score = 2.38; G2 cells, % of GMNN control = 19.7
IGFL3 #3 → G2 robust z-score = -0.774; G2 cells, % of GMNN control = -2.48
ANXA3 #1 → G2 robust z-score = -0.401; G2 cells, % of GMNN control = 0.145
ANXA3 #2 → G2 robust z-score = -0.0777; G2 cells, % of GMNN control = 2.42
ANXA3 #3 → G2 robust z-score = 0.907; G2 cells, % of GMNN control = 9.35
SLC25A39 #1 → G2 robust z-score = -0.485; G2 cells, % of GMNN control = -0.448
SLC25A39 #2 → G2 robust z-score = 5.54 (active); G2 cells, % of GMNN control = 41.9
SLC25A39 #3 → G2 robust z-score = 1.65; G2 cells, % of GMNN control = 14.6
HULC #1 → G2 robust z-score = 0.73; G2 cells, % of GMNN control = 8.1
HULC #2 → G2 robust z-score = -1.02; G2 cells, % of GMNN control = -4.19
HULC #3 → G2 robust z-score = -0.402; G2 cells, % of GMNN control = 0.138
ACYP1 #1 → G2 robust z-score = 1; G2 cells, % of GMNN control = 10
ACYP1 #2 → G2 robust z-score = -0.461; G2 cells, % of GMNN control = -0.275
ACYP1 #3 → G2 robust z-score = 3.73; G2 cells, % of GMNN control = 29.2
ELP6 #1 → G2 robust z-score = -1.2; G2 cells, % of GMNN control = -5.48
ELP6 #2 → G2 robust z-score = 0.571; G2 cells, % of GMNN control = 6.99
ELP6 #3 → G2 robust z-score = 0.0572; G2 cells, % of GMNN control = 3.37
ICAM4 #1 → G2 robust z-score = -0.616; G2 cells, % of GMNN control = -1.37
ICAM4 #2 → G2 robust z-score = -0.639; G2 cells, % of GMNN control = -1.53
ICAM4 #3 → G2 robust z-score = -0.371; G2 cells, % of GMNN control = 0.354
FSD2 #1 → G2 robust z-score = 0.875; G2 cells, % of GMNN control = 9.12
FSD2 #2 → G2 robust z-score = 4.84; G2 cells, % of GMNN control = 37
FSD2 #3 → G2 robust z-score = 0.426; G2 cells, % of GMNN control = 5.96
POLE3 #1 → G2 robust z-score = -0.701; G2 cells, % of GMNN control = -1.96
POLE3 #2 → G2 robust z-score = 0.756; G2 cells, % of GMNN control = 8.29
POLE3 #3 → G2 robust z-score = -0.42; G2 cells, % of GMNN control = 0.0115
FAM50A #1 → G2 robust z-score = -0.595; G2 cells, % of GMNN control = -1.22
FAM50A #2 → G2 robust z-score = 2.46; G2 cells, % of GMNN control = 20.3
FAM50A #3 → G2 robust z-score = -0.631; G2 cells, % of GMNN control = -1.47

Ordered by “G2 cells, % of GMNN control” (highest first): 4 of the entries above
FSD2 #2 → G2 robust z-score = 4.84; G2 cells, % of GMNN control = 37
POLE3 #2 → G2 robust z-score = 0.756; G2 cells, % of GMNN control = 8.29
FSD2 #3 → G2 robust z-score = 0.426; G2 cells, % of GMNN control = 5.96
POLE3 #1 → G2 robust z-score = -0.701; G2 cells, % of GMNN control = -1.96
